Some of the results follow. The main result of the screen is listed elsewhere. These columns were measured beside it and carry no call. Most of these compounds were active or inconclusive in the main read-out, so they are no random draw. Potencies come from curve fits of mixed quality, noted in brackets.
Test: qHTS Assay to Find Inhibitors of Chronic Active B-Cell Receptor Signaling
Conditions: ABC-DLBCL IkBa-CBG/CBR reporter, luminescence ratio (green luciferase fused to IkBa over red control in TMD8 lymphoma cells), 4 h
Summary of the method: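 Concentration-response series (up to 46 uM) were applied to TMD8 dual-reporter cells for 4 h at 37C with doxycycline. Green/red ratio, after filter-overlap correction, defined %Activity; red signal alone was normalised to basal cells and zero luminescence.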

[1] = measured here: CBR red luminescence, cell number
[2] = measured here: IkBa-CBG green luminescence

**Q.** For `Cc1csc(NC(=O)CSc2nnc3c4ccccc4nc(C(C)(C)C)n23)n1`, which AC50 [1] is on record?
**A.** 3.16 µM [falling, single point]

**Q.** Which AC50 [1] does the source give for `Cc1ccc(CSCc2nc3ccccc3[nH]2)cc1` here?
**A.** 7.94 µM [rising, partial curve, poor fit]

**Q.** Which AC50 [1] does the source give for `COCCCNC(=S)Nc1ccc(CC(=O)O)cc1` here?
**A.** 11.6 µM [rising, partial curve, poor fit]

**Q.** Which AC50 [1] does the source give for `COc1ccc(Br)cc1CNC(=O)c1cc(=O)[nH]c2ccc(S(=O)(=O)N3CCCC3)cc12` here?
**A.** 0.251 µM [rising, full curve, poor fit]

**Q.** With `c1ccc(-c2ccc(-c3cnc4n3CCCCC4)cc2)cc1` as the compound, how does the AC50 [1] read?
**A.** 1.3 µM [rising, full curve, poor fit]

**Q.** Which AC50 [1] does the source give for `O=C(O)c1cccc(-c2ccc3c(c2)OCO3)c1` here?
**A.** 22.4 µM [falling, single point]

**Q.** For `Cn1cccc1/C=C1\SC(=O)N(c2ccccc2)C1=O`, which AC50 [1] is on record?
**A.** 1.64 µM [falling, full curve]

**Q.** Which AC50 [2] does the source give for `O=C(O)c1cc2nc3c(c(C(F)(F)F)n2n1)CCc1ccccc1-3` here?
**A.** 15.8 µM [rising, partial curve, poor fit]

**Q.** For `COc1cc(/C=C(\NC(C)=O)C(=O)Nc2cccc(O)c2)ccc1OC(C)=O`, which AC50 [1] is on record?
**A.** 11.6 µM [rising, partial curve]

**Q.** Which AC50 [1] does the source give for `COC(=O)CCN1CCc2cc(N=Nc3ccc([N+](=O)[O-])cc3)ccc21` here?
**A.** 11.2 µM [rising, partial curve, poor fit]

**Q.** Which AC50 [1] does the source give for `CC(CN1CCOCC1)OC(=O)c1ccccc1Br` (configuration not stated) here?
**A.** 2.91 µM [falling, single point]

**Q.** For `C=CCn1c(C)cc(C(=O)CSc2nnc(C3CC3)n2C2CC2)c1C`, which AC50 [2] is on record?
**A.** 23.1 µM [falling, partial curve, poor fit]

**Q.** Which AC50 [1] does the source give for `Cc1cc(OCC(=O)Nc2ccc(S(=O)(=O)N3CCN(C)CC3)cc2)cc(C)c1Cl` here?
**A.** 32.6 µM [falling, single point]

**Q.** For `CC(C)CCC1(C)NC(=O)N(CC(=O)Nc2ccc3c(c2)OCCO3)C1=O` (configuration not stated), which AC50 [1] is on record?
**A.** 3.26 µM [falling, partial curve, poor fit]

**Q.** With `c1cc2c(cc1Oc1nc(N3CCOCC3)nc(N3CCOCC3)n1)OCO2` as the compound, how does the AC50 [1] read?
**A.** 1.03 µM [rising, partial curve]

**Q.** For `COc1ccccc1CNC(=O)CCCOc1cc(=O)n(C)c2ccccc12`, which AC50 [1] is on record?
**A.** 35.5 µM [rising, partial curve, poor fit]

**Q.** With `O=C(Nc1nc2ccccc2s1)C1CCCO1` (configuration not stated) as the compound, how does the AC50 [1] read?
**A.** 10 µM [falling, partial curve]

**Q.** For `CC12CCC(C(=O)NCc3ccc(F)cc3)(OC1=O)C2(C)C` (configuration not stated), which AC50 [1] is on record?
**A.** 15.8 µM [rising, partial curve, poor fit]

**Q.** With `COC(=O)c1[nH]c2ccc(Cl)cc2c1NC(=O)CCN1CCN(C2CCCCC2)CC1` as the compound, how does the AC50 [1] read?
**A.** 13 µM [rising, partial curve, poor fit]

**Q.** Which AC50 [1] does the source give for `Cc1cccc2sc(N(CCCN(C)C)C(=O)c3cc4ccccc4oc3=O)nc12` here?
**A.** 23.1 µM [falling, single point]

**Q.** With `CN(c1ccccc1)S(=O)(=O)c1ccc(Cl)c(C(=O)Nc2nc3ccccc3[nH]2)c1` as the compound, how does the AC50 [1] read?
**A.** 9.2 µM [falling, partial curve]

**Q.** With `Cc1cc(C)cc(OCCn2c(C3CC(=O)N(c4ccccc4Cl)C3)nc3ccccc32)c1` (configuration not stated) as the compound, how does the AC50 [1] read?
**A.** 2.06 µM [rising, full curve]

**Q.** Which AC50 [1] does the source give for `O=C(NNC(=S)Nc1ccccc1Cl)c1ccccc1Br` here?
**A.** 14.1 µM [falling, single point]

**Q.** What about the AC50 [2] of the same compound?
**A.** 5.62 µM [falling, single point]

**Q.** With `COc1ccc(C2CC(=O)N(C)c3ccccc3S2)cc1` (configuration not stated) as the compound, how does the AC50 [1] read?
**A.** 7.08 µM [falling, partial curve]

**Q.** With `CC(C)n1cnc2cc(NCc3ccco3)ccc21` as the compound, how does the AC50 [1] read?
**A.** 7.08 µM [rising, full curve]

**Q.** With `Cc1occc1-c1nnc(SCC(=O)c2cc3ccccc3oc2=O)o1` as the compound, how does the AC50 [1] read?
**A.** 14.1 µM [falling, single point]

**Q.** Which AC50 [1] does the source give for `CC1=C(C#N)C(c2ccccc2O)C(C#N)=C(C)N1` here?
**A.** 0.631 µM [falling, full curve, poor fit]

**Q.** For `Cc1nnc(N/N=C/c2c(Cl)cccc2Cl)n1N`, which AC50 [1] is on record?
**A.** 5.62 µM [rising, single point]

**Q.** Which AC50 [1] does the source give for `CCOC(=O)C1CCN(C(=O)CCNC(=O)c2cc(OC)c(OC)c(OC)c2)CC1` here?
**A.** 14.1 µM [rising, single point]

**Q.** With `Cc1[nH]c(-c2ccc(F)cc2)cc1C(=O)N1CCN(c2ccccc2)CC1` as the compound, how does the AC50 [1] read?
**A.** 17.8 µM [falling, single point]

**Q.** For `Cc1ccccc1NC(=O)/C(C#N)=C/c1ccsc1`, which AC50 [1] is on record?
**A.** 32.6 µM [falling, single point]

**Q.** Which AC50 [1] does the source give for `COc1ccc(/C=C2\C(=O)c3ccccc3OC2c2ccccc2)cc1` (configuration not stated) here?
**A.** 15.8 µM [rising, single point]

**Q.** With `COc1ccc(-c2cc(N3CCCC3)n3ncnc3n2)cc1` as the compound, how does the AC50 [1] read?
**A.** 2.06 µM [rising, partial curve, poor fit]

**Q.** For `N#C/C(=C\c1c(F)cccc1Cl)c1nn(-c2ccccc2)c(-n2cccc2)c1C#N`, which AC50 [1] is on record?
**A.** 0.794 µM [falling, full curve, poor fit]

**Q.** With `CCCCN1CCc2c1nc1ccc(Br)cc1c2N` as the compound, how does the AC50 [1] read?
**A.** 7.31 µM [falling, single point]

**Q.** With `CC1=CC(C)(C)N(C(=O)c2ccccc2)c2ccccc21` as the compound, how does the AC50 [1] read?
**A.** 35.5 µM [rising, single point]

**Q.** Which AC50 [1] does the source give for `COc1ccc(-c2cc(C(F)(F)F)n3nc(C(=O)NCc4ccco4)cc3n2)cc1OC` here?
**A.** 0.103 µM [rising, full curve, poor fit]

**Q.** With `Cc1ccccc1C(=O)Nc1ccc(Br)cn1` as the compound, how does the AC50 [1] read?
**A.** 4.47 µM [falling, partial curve]

**Q.** With `COc1ccc(S(=O)(=O)N2CCCCCC2)cc1C(=O)Nc1cc(C)ccn1` as the compound, how does the AC50 [1] read?
**A.** 23.1 µM [falling, single point]

**Q.** For `COc1ccc(OC)c(C2/C(=C(\O)c3ccc(OC)c(Cl)c3)C(=O)C(=O)N2CCN(C)C)c1` (configuration not stated), which AC50 [1] is on record?
**A.** 6.51 µM [rising, single point]

**Q.** With `COc1ccccc1-c1nc(C#N)c(N2CC(C)CC(C)C2)o1` (configuration not stated) as the compound, how does the AC50 [1] read?
**A.** 35.5 µM [falling, single point]

**Q.** Which AC50 [1] does the source give for `CC(C)=CC(=O)Nc1nc2ccc([N+](=O)[O-])cc2s1` here?
**A.** 10 µM [falling, partial curve, poor fit]

**Q.** For `CC(C)NC(=O)c1onc(CSc2ccc(F)cc2)c1C(=O)O`, which AC50 [1] is on record?
**A.** 35.5 µM [falling, single point]

**Q.** Which AC50 [1] does the source give for `CN(CCOc1ccc(Cl)cc1)C(=O)c1ccc(S(=O)(=O)N2CCOCC2)cc1` here?
**A.** 35.5 µM [falling, single point]

**Q.** For `Cc1cccc(NC(=O)COc2ccc3c(c2)CCC3)n1`, which AC50 [1] is on record?
**A.** 6.51 µM [falling, partial curve, poor fit]

**Q.** Which AC50 [1] does the source give for `C/C(=N/NS(=O)(=O)c1ccc(Cl)cc1)c1ccncc1` here?
**A.** 11.2 µM [falling, partial curve]

**Q.** Which AC50 [1] does the source give for `CCC(=O)Nc1ccc(NC(=O)c2ccc3c(c2)OCO3)cc1` here?
**A.** 5.8 µM [falling, full curve, poor fit]

**Q.** With `CCOC(=O)C(=CNc1ccc2c(c1)c1ccccc1n2CC)C(=O)OCC` as the compound, how does the AC50 [1] read?
**A.** 15.8 µM [falling, partial curve, poor fit]

**Q.** Which AC50 [1] does the source give for `CCc1c(C)nc(SCC(=O)Nc2ccc(Br)cc2)[nH]c1=O` here?
**A.** 1.46 µM [falling, partial curve, poor fit]

**Q.** Which AC50 [1] does the source give for `CC(C)Oc1ccc(C(=O)Nc2ccccc2N2CCCC2)cc1` here?
**A.** 29.1 µM [falling, single point]

**Q.** For `Cc1ccccc1C(=O)NC(=S)Nc1ccc(S(=O)(=O)N2CCOCC2)cc1`, which AC50 [1] is on record?
**A.** 2.31 µM [falling, full curve]

**Q.** With `CCc1ccc(C(=O)N2CCN(c3ccc(NC(=O)c4cccnc4)cc3)CC2)cc1` as the compound, how does the AC50 [1] read?
**A.** 35.5 µM [falling, single point]

**Q.** With `COc1ccccc1N1C(=O)CC(Nc2ccc(N3CCOCC3)cc2)C1=O` (configuration not stated) as the compound, how does the AC50 [1] read?
**A.** 35.5 µM [falling, single point]

**Q.** Which AC50 [1] does the source give for `CC(=O)Nc1ccc(C(=O)OCC(=O)NC(=O)NC(C)(C)C)cc1` here?
**A.** 11.6 µM [falling, partial curve, poor fit]

**Q.** With `Cc1c(N=Cc2ccc[nH]2)c(=O)n(-c2ccccc2)n1C` as the compound, how does the AC50 [1] read?
**A.** 15.8 µM [rising, single point]

**Q.** For `O=C(c1ccc([N+](=O)[O-])cc1Cl)N1CCN(c2ccccn2)CC1`, which AC50 [1] is on record?
**A.** 35.5 µM [falling, single point]

**Q.** Which AC50 [1] does the source give for `O=Cc1c(Nc2cccc(C(F)(F)F)c2)nc2ccccn2c1=O` here?
**A.** 0.282 µM [rising, full curve, poor fit]

**Q.** Which AC50 [1] does the source give for `COc1ccnc2c1c(=O)n(Cc1cccc(F)c1)c(=O)n2C` here?
**A.** 3.16 µM [falling, full curve, poor fit]

**Q.** Which AC50 [1] does the source give for `O=C(NN1C(=O)C2C(c3ccccc3)C=CC(c3ccccc3)C2C1=O)c1ccccc1` (configuration not stated) here?
**A.** 20.6 µM [falling, single point]

**Q.** With `NC(=O)COC(=O)CCCSc1nc2ccccc2s1` as the compound, how does the AC50 [1] read?
**A.** 11.2 µM [falling, partial curve, poor fit]

**Q.** What about the AC50 [2] of the same compound?
**A.** 0.282 µM [rising, partial curve, poor fit]

**Q.** For `O=C(N/N=C/c1cccc(NC(=O)c2ccc(Cl)cc2)c1)c1cccc(O)c1`, which AC50 [1] is on record?
**A.** 1 µM [falling, full curve, poor fit]

**Q.** With `CCC(C)C(=O)Nc1nnc(SCC(=O)Nc2ccc(F)cc2)s1` (configuration not stated) as the compound, how does the AC50 [1] read?
**A.** 35.5 µM [rising, partial curve, poor fit]

**Q.** With `COc1ccc(CN(C)C(=O)c2cc(-c3ccc(C)cc3C)nc3ccccc23)c(OC)c1OC` as the compound, how does the AC50 [1] read?
**A.** 22.4 µM [falling, single point]

**Q.** For `O=C(c1ccccc1)c1ccc(OCC(=O)N2CCOCC2)cc1`, which AC50 [1] is on record?
**A.** 35.5 µM [falling, single point]

**Q.** For `CCOC(=O)c1ccccc1NC(=O)CN(c1ccccc1OC)S(=O)(=O)c1ccc(C)cc1`, which AC50 [1] is on record?
**A.** 3.16 µM [falling, single point]

— PubChem BioAssay AID493014 (National Center for Advancing Translational Sciences (NCATS), 2011)
